From the supplement of paper PMC6411743
± gives the standard deviation of the averaged measurements. The entries are a selection whose mix differs from that of the whole data set. Most values lie at the level of the controls, where differences are scatter.

Sequences of proteins named here, by UniProt entry; tags and fusion partners are left off. A change or cut given only in a name is not applied to a line headed by its entry.
UniProt Q9UJX3, whole entry: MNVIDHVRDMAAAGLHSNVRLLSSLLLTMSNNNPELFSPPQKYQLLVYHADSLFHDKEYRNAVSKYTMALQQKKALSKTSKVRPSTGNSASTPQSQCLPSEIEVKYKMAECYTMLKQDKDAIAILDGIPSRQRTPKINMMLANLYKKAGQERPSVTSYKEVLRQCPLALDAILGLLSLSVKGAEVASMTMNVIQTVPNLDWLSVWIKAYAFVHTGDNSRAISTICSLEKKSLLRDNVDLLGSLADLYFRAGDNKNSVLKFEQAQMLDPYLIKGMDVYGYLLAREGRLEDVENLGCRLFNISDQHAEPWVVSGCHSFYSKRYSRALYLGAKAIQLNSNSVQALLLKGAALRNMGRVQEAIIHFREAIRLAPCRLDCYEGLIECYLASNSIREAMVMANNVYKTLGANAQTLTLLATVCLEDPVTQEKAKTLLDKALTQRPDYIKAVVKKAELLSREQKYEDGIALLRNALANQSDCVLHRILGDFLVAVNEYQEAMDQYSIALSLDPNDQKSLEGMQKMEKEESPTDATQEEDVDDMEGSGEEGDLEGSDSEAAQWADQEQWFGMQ
UniProt Q9UIQ6, whole entry: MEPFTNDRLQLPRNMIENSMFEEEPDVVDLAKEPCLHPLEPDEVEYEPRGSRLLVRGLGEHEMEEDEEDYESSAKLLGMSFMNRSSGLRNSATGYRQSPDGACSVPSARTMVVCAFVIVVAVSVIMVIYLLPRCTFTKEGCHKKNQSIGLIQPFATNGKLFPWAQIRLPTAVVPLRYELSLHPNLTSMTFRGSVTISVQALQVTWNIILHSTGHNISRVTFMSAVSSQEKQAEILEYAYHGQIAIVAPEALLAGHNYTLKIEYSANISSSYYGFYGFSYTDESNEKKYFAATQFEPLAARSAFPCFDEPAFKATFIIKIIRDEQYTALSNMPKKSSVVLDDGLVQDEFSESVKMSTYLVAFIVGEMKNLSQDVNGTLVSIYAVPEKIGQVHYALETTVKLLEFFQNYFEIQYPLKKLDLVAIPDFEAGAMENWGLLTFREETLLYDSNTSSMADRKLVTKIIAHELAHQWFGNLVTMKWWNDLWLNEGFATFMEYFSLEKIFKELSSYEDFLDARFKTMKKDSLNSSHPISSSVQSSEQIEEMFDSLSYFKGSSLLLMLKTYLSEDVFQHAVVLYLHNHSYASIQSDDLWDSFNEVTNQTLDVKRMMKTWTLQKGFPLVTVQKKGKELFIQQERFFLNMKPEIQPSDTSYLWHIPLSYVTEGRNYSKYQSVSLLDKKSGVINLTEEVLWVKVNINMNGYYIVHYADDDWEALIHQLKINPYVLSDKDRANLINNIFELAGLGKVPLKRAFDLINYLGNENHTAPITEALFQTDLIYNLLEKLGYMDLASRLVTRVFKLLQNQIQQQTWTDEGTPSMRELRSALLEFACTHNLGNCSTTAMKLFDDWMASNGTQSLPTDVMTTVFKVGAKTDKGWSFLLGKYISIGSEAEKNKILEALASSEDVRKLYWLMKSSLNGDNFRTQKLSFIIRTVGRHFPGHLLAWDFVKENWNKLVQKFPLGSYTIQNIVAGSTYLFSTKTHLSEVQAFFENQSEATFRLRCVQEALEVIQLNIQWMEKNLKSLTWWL
UniProt Q9UHA4, whole entry: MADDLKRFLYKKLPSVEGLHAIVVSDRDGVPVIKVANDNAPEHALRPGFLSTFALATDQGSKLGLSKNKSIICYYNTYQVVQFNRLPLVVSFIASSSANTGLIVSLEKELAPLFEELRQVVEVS
UniProt Q9Y2D5: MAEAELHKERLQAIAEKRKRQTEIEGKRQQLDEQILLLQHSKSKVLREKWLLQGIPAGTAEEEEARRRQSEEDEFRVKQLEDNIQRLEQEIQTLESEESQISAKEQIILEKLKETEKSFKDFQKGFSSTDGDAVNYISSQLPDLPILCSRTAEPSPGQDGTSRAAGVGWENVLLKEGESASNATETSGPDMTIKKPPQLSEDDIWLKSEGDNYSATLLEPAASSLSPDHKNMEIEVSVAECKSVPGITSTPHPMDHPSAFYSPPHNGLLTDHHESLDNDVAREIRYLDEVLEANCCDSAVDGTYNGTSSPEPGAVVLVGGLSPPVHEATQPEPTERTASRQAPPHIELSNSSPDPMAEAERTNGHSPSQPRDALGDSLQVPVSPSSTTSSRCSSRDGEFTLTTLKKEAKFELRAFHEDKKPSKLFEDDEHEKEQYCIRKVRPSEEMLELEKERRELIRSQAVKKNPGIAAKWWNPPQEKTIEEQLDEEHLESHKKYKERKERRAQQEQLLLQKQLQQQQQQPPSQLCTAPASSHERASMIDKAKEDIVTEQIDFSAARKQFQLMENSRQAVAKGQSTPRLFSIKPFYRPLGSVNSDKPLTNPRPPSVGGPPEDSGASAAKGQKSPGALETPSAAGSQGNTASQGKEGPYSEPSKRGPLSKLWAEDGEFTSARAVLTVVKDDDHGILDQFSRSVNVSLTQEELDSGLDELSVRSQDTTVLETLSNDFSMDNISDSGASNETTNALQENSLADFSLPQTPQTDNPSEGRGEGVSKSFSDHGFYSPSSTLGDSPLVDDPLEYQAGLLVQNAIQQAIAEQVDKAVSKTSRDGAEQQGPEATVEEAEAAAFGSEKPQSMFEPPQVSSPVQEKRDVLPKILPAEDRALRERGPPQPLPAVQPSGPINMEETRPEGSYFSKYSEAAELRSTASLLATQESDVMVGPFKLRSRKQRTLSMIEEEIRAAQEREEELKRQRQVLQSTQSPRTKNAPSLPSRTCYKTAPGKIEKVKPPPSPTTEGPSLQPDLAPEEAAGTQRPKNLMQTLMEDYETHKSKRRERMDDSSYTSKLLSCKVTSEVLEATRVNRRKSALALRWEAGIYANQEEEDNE
UniProt Q9UJX2, whole entry: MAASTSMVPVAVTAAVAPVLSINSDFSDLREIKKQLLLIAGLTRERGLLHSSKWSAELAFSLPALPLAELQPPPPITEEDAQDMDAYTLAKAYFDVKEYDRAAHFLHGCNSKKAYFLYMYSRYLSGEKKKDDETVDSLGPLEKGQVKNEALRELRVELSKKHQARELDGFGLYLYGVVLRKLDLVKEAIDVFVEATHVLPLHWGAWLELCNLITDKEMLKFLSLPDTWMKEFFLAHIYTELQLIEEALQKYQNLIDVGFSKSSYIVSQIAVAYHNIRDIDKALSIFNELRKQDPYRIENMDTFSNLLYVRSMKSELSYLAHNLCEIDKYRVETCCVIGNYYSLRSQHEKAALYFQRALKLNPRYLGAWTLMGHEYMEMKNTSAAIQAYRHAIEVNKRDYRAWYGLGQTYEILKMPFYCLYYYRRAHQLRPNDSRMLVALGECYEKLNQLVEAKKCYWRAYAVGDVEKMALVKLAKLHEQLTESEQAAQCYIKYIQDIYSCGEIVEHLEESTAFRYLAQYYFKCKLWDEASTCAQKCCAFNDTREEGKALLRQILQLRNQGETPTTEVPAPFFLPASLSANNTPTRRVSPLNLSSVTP
UniProt Q9UJ68: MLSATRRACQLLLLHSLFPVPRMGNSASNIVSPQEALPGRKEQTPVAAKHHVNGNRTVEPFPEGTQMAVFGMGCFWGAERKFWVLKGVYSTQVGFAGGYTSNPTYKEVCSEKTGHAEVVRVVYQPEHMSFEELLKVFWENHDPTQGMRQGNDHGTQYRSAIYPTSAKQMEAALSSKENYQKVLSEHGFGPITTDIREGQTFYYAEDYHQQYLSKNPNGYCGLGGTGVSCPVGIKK
UniProt Q9Y320, whole entry: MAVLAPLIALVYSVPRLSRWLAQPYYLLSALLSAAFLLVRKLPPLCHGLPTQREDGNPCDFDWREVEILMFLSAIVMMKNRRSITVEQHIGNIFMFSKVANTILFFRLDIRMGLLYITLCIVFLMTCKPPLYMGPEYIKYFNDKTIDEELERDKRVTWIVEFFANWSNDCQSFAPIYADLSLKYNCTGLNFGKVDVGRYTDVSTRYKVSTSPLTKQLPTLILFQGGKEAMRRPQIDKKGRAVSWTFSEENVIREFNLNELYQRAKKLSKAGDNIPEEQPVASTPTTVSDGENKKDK
UniProt Q9UBU8, whole entry: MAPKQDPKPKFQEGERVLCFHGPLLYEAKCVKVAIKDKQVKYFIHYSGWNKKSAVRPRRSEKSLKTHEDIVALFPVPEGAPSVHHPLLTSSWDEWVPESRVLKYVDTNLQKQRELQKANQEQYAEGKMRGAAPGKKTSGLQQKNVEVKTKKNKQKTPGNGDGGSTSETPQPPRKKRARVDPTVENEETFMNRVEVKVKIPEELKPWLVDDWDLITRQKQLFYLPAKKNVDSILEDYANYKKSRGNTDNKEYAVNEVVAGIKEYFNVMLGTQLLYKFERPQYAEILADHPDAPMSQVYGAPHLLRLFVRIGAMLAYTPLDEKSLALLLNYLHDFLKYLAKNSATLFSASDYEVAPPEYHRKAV
UniProt Q9Y223: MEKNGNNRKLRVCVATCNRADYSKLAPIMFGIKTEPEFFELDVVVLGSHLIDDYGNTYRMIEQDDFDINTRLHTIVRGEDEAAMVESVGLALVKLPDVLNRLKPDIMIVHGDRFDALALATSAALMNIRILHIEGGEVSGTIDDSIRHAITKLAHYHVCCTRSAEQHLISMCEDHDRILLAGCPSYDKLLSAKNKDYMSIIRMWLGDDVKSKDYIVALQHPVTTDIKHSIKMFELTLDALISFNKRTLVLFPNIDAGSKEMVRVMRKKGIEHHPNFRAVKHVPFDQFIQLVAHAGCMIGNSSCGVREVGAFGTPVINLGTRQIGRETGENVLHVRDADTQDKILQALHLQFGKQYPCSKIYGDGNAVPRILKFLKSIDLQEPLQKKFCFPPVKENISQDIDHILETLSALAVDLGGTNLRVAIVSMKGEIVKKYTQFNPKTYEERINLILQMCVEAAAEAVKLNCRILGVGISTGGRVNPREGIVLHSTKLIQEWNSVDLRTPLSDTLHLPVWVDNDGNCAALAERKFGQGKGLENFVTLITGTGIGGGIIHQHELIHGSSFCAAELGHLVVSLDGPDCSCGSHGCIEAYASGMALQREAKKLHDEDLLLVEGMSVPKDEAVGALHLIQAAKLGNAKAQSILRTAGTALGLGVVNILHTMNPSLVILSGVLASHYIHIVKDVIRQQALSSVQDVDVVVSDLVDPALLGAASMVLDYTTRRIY
UniProt Q9UNX4: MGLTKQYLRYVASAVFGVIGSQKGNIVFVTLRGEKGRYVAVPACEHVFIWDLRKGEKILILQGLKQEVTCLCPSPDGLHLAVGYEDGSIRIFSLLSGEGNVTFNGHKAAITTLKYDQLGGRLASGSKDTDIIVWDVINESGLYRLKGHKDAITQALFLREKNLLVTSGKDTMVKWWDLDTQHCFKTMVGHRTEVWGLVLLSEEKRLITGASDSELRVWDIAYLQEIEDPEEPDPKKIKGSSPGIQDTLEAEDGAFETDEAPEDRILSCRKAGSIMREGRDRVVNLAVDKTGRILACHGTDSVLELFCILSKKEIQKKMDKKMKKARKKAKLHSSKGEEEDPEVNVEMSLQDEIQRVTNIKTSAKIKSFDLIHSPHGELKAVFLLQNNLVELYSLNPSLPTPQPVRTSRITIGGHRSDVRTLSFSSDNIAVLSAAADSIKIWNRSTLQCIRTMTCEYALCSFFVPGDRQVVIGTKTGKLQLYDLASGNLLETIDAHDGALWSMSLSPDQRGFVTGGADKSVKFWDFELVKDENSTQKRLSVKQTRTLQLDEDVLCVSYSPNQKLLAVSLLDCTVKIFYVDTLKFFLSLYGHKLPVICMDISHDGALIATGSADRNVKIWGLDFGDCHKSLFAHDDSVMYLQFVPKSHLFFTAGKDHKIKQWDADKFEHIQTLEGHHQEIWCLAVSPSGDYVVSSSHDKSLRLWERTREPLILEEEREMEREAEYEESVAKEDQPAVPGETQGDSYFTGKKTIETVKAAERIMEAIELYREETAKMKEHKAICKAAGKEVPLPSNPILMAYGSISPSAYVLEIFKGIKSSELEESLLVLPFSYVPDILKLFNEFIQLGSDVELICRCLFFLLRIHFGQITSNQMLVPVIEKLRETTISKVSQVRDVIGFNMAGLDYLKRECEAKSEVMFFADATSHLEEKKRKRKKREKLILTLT
UniProt Q9UKA9: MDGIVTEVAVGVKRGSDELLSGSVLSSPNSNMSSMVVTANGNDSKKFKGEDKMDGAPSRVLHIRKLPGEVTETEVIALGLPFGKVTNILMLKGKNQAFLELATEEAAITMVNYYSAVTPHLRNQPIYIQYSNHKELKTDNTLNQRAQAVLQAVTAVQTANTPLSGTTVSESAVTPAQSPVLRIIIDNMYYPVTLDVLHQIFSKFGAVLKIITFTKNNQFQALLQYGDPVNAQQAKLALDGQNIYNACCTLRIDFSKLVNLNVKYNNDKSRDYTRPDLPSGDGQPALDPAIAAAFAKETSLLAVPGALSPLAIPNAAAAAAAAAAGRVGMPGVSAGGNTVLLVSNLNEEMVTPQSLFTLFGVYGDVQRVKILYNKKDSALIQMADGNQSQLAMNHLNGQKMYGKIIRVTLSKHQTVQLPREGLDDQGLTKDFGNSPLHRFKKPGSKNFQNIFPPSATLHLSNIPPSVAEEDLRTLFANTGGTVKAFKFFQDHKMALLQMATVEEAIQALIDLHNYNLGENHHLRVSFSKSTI

Compound: Nc1ncnc2c1ncn2[C@@H]1O[C@H](COP(=O)(O)OP(=O)(O)NP(=O)(O)O)[C@@H](O)[C@H]1O [adenylyl imidodiphosphate]
Experiment: NP40-soluble protein abundance relative to vehicle (solubility fold change) (ratio); higher = more soluble protein in presence of AMP-PNP
Procedure, shortened: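 Eight concentrations, 0.1 to 10 mM, were tested on Jurkat crude lysate for 10 min at room temperature and then 3 min at 37 °C, in three independent experiments. The lysate was solubilised with 0.8% NP40 and benzonase, ultracentrifuged, and the supernatant TMT-labelled for LC-MS/MS. Each value is the fold change against the detergent-processed vehicle in its own replicate, from vsn-normalised intensities.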

Q: Which NP40-soluble protein abundance (concentration: 0.1mM) does the source give for ANAPC7 (UniProt Q9UJX3) here?
A: The NP40-soluble protein abundance was 1.02 ± 0.035.

Q: What about the NP40-soluble protein abundance (concentration: 0.5mM) of the same target?
A: The NP40-soluble protein abundance was 1.02 ± 0.012.

Q: Which results are given for UniProt Q9UJS0 and related entries?
A: NP40-soluble protein abundance (concentration: 0.1mM): 1.01 ± 0.029; NP40-soluble protein abundance (concentration: 0.5mM): 1.03 ± 0.056

Q: Which NP40-soluble protein abundance (concentration: 0.1mM) does the source give for LNPEP (UniProt Q9UIQ6) here?
A: The NP40-soluble protein abundance was 1.01 ± 0.017.

Q: What about the NP40-soluble protein abundance (concentration: 0.5mM) of the same target?
A: The NP40-soluble protein abundance was 1.03 ± 0.062.

Q: With UniProt Q9ULE6 as the target, how does the NP40-soluble protein abundance (concentration: 0.1mM) read?
A: Its NP40-soluble protein abundance is 0.981 ± 0.028.

Q: And the NP40-soluble protein abundance (concentration: 0.5mM)?
A: The NP40-soluble protein abundance was 0.974 ± 0.051.

Q: What does the source list for UniProt Q9UHA4?
A: NP40-soluble protein abundance (concentration: 0.1mM): 1.08 ± 0.084; NP40-soluble protein abundance (concentration: 0.5mM): 1.02 ± 0.053

Q: How did the NP40-soluble protein abundance (concentration: 0.1mM) turn out when UBQLN1 (UniProt Q9UMX0) was run?
A: Its NP40-soluble protein abundance is 0.999 ± 0.025.

Q: And the NP40-soluble protein abundance (concentration: 0.5mM)?
A: Its NP40-soluble protein abundance is 1.1 ± 0.088.

Q: What does the source list for UniProt Q9Y2D5 and related entries?
A: NP40-soluble protein abundance (concentration: 0.1mM): 0.9978 ± 0.0075; NP40-soluble protein abundance (concentration: 0.5mM): 1.07 ± 0.044

Q: What does the source list for CDC23 (UniProt Q9UJX2)?
A: NP40-soluble protein abundance (concentration: 0.1mM): 1.03 ± 0.033; NP40-soluble protein abundance (concentration: 0.5mM): 1.01 ± 0.012

Q: UniProt Q9Y2X9 and related entries was tested. Which NP40-soluble protein abundance (concentration: 0.1mM) did it give?
A: Its NP40-soluble protein abundance is 0.977 ± 0.039.

Q: What about the NP40-soluble protein abundance (concentration: 0.5mM) of the same target?
A: Its NP40-soluble protein abundance is 1 ± 0.044.

Q: How did the NP40-soluble protein abundance (concentration: 0.1mM) turn out when RUVBL1 (UniProt Q9Y265) was run?
A: The NP40-soluble protein abundance was 1.04 ± 0.04.

Q: What about the NP40-soluble protein abundance (concentration: 0.5mM) of the same target?
A: Its NP40-soluble protein abundance is 1.05 ± 0.036.

Q: Which results are given for USP20 (UniProt Q9Y2K6)?
A: NP40-soluble protein abundance (concentration: 0.1mM): 1 ± 0.028; NP40-soluble protein abundance (concentration: 0.5mM): 1.02 ± 0.014

Q: UniProt Q9UG63 and related entries was tested. Which NP40-soluble protein abundance (concentration: 0.1mM) did it give?
A: The NP40-soluble protein abundance was 1.01 ± 0.031.

Q: And the NP40-soluble protein abundance (concentration: 0.5mM)?
A: The NP40-soluble protein abundance was 1 ± 0.047.

Q: How did the NP40-soluble protein abundance (concentration: 0.1mM) turn out when UniProt Q9UJ68 and related entries was run?
A: The NP40-soluble protein abundance was 1.01 ± 0.1.

Q: What about the NP40-soluble protein abundance (concentration: 0.5mM) of the same target?
A: Its NP40-soluble protein abundance is 1.01 ± 0.054.

Q: With UniProt Q9Y320 and related entries as the target, how does the NP40-soluble protein abundance (concentration: 0.1mM) read?
A: Its NP40-soluble protein abundance is 0.958 ± 0.04.

Q: What about the NP40-soluble protein abundance (concentration: 0.5mM) of the same target?
A: The NP40-soluble protein abundance was 0.971 ± 0.037.

Q: For UniProt Q9UBU8 and related entries, which NP40-soluble protein abundance (concentration: 0.1mM) is on record?
A: Its NP40-soluble protein abundance is 1.04 ± 0.02.

Q: And the NP40-soluble protein abundance (concentration: 0.5mM)?
A: The NP40-soluble protein abundance was 1.04 ± 0.047.

Q: For UniProt Q9Y223 and related entries, which NP40-soluble protein abundance (concentration: 0.1mM) is on record?
A: The NP40-soluble protein abundance was 1.03 ± 0.012.

Q: And the NP40-soluble protein abundance (concentration: 0.5mM)?
A: The NP40-soluble protein abundance was 0.986 ± 0.09.

Q: How did the NP40-soluble protein abundance (concentration: 0.1mM) turn out when WDR3 (UniProt Q9UNX4) was run?
A: The NP40-soluble protein abundance was 1.05 ± 0.04.

Q: What about the NP40-soluble protein abundance (concentration: 0.5mM) of the same target?
A: The NP40-soluble protein abundance was 1.02 ± 0.095.

Q: What does the source list for UniProt Q9UKA9 and related entries?
A: NP40-soluble protein abundance (concentration: 0.1mM): 1 ± 0.028; NP40-soluble protein abundance (concentration: 0.5mM): 1.02 ± 0.02

Q: Which NP40-soluble protein abundance (concentration: 0.1mM) does the source give for MAN1B1 (UniProt Q9UKM7) here?
A: Its NP40-soluble protein abundance is 1.019 ± 0.0086.

Q: What about the NP40-soluble protein abundance (concentration: 0.5mM) of the same target?
A: Its NP40-soluble protein abundance is 1.035 ± 0.0025.

Q: How did the NP40-soluble protein abundance (concentration: 0.1mM) turn out when LRWD1 (UniProt Q9UFC0) was run?
A: The NP40-soluble protein abundance was 1.01 ± 0.021.

Q: What about the NP40-soluble protein abundance (concentration: 0.5mM) of the same target?
A: The NP40-soluble protein abundance was 0.991 ± 0.028.

Q: How did the NP40-soluble protein abundance (concentration: 0.1mM) turn out when UniProt Q9Y2H6 and related entries was run?
A: The NP40-soluble protein abundance was 0.983 ± 0.026.

Q: What about the NP40-soluble protein abundance (concentration: 0.5mM) of the same target?
A: The NP40-soluble protein abundance was 0.993 ± 0.035.

Q: SCML2 (UniProt Q9UQR0) was tested. Which NP40-soluble protein abundance (concentration: 0.1mM) did it give?
A: Its NP40-soluble protein abundance is 1.02 ± 0.044.

Q: And the NP40-soluble protein abundance (concentration: 0.5mM)?
A: Its NP40-soluble protein abundance is 1.05 ± 0.07.
